Data from PubChem BioAssay AID540276 (National Center for Advancing Translational Sciences (NCATS), 2011).
Hit rate of the full screen: of about 300,000 compounds, about 5,400 (1.8%) were called active. The inconclusive results got no clear call from the source; some entries with a clear call stand among them for comparison. Calls come from the whole dose curve; tested in HEK293 cells. Potencies of inconclusive entries are doubtful fits and often do not repeat.

Experiment: qHTS for inhibitors of binding or entry into cells for Marburg Virus
Details: Marburg virus pseudotyped entry inhibition, cell reporter; series mostly up to 37.8 µM
Potency is the fitted concentration of half-maximal effect.

Which Potency does the source give for `CCCC(C)NC(=S)NC(=O)c1cc(S(=O)(=O)N2CCOCC2)ccc1C` (stereo unspecified) here?
Its Potency is inconclusive: 10 µM [inhibitor, single point].

With `Cc1ccc(C(=O)C2Oc3ccccc3C3CC(c4ccc(C)cc4)=NN23)cc1` (stereo unspecified) as the molecule, how does the Potency read?
The Potency was inconclusive: 1.84 µM [activator, single point].

With `CNC(=S)N/N=C/c1c(Cl)cccc1Cl` as the molecule, how does the Potency read?
Its Potency is “inactive”.

Which Potency does the source give for `CCCCNC(=O)Nc1ccc(C(O)(C(=O)OC)C(F)(F)F)cc1` (stereo unspecified) here?
The Potency was inconclusive: 1.03 µM [activator, full curve, poor fit].

Which Potency does the source give for `COc1cc(C2Nc3ccccc3-c3nnc(SCc4ccc(C)cc4)nc3O2)cc(OC)c1O` (stereo unspecified) here?
Its Potency is inconclusive: 12.6 µM [activator, partial curve, poor fit].

With `CN1CCN(c2ccc(NC(=O)COc3ccccc3)cc2Cl)CC1` as the molecule, how does the Potency read?
Its Potency is inconclusive: 4.47 µM [activator, single point].

Which Potency does the source give for `O=C(NCCc1ccccn1)c1ccc2nc(Cc3ccccc3F)oc2c1` here?
The Potency was inconclusive: 5.62 µM [activator, single point].

For `O=C1COc2ccc(C(=O)CCl)cc2N1`, which Potency is on record?
Its Potency is inconclusive: 10 µM [inhibitor, partial curve].

Which Potency does the source give for `Cc1ccccc1C(=O)NCc1ccncc1` here?
The Potency was inconclusive: 0.141 µM [activator, full curve, poor fit].

Which Potency does the source give for `CN1CCN(c2ccc(NC(=O)COc3ccc4ccccc4c3)cc2)CC1` here?
Its Potency is inconclusive: 17.8 µM [inhibitor, single point].

For `COc1ccc(OC)c(C2C(C(=O)O)c3ccccc3C(=O)N2C)c1` (stereo unspecified), which Potency is on record?
Its Potency is “inactive”.

With `COc1cc(OC)nc(/N=C/NO)n1` as the molecule, how does the Potency read?
Its Potency is inconclusive: 0.708 µM [inhibitor, partial curve, poor fit].

For `N#CC(C#N)=C(C#N)c1ccc(Nc2ccccc2)cc1`, which Potency is on record?
Its Potency is “inactive”.

Which Potency does the source give for `CCCCN(CCCC)C(=O)C1(P(=O)(c2ccccc2)c2ccccc2)CCC1` here?
Its Potency is inconclusive: 15.8 µM [inhibitor, partial curve, poor fit].

Which Potency does the source give for `COc1cc(OC)c(C2C(C(=O)Nc3ccccc3)=C(C)Nc3ncnn32)cc1OC` (stereo unspecified) here?
The Potency was inconclusive: 32.6 µM [activator, single point].

Which Potency does the source give for `CCc1ccc(C2c3c(oc4cc(C)c(C)cc4c3=O)C(=O)N2c2nc(C)c(C(=O)OC)s2)cc1` (stereo unspecified) here?
Its Potency is inconclusive: 0.562 µM [inhibitor, full curve, poor fit].

Which Potency does the source give for `COc1cc(/C=C(\C#N)c2nc3ccccc3[nH]2)cc(Br)c1OCc1ccccc1` here?
Its Potency is inconclusive: 11.2 µM [inhibitor, partial curve, poor fit].

With `CCN1CCN(c2ccc(S(=O)(=O)N3CCCCC3)cc2NC(=O)/C=C/c2ccc(OC)c(OC)c2)CC1` as the molecule, how does the Potency read?
Its Potency is inconclusive: 35.5 µM [inhibitor, single point].

For `O=C(CSc1nc2c(c(C(F)(F)F)n1)CCc1ccccc1-2)NCc1ccc(F)cc1`, which Potency is on record?
The Potency was inconclusive: 4.61 µM [inhibitor, partial curve].

With `S=c1[nH]c2ccc3ccccc3c2[nH]1` as the molecule, how does the Potency read?
Its Potency is “inactive”.

Which Potency does the source give for `CCn1cc(Br)c(C(=O)Nc2sc3c(c2C(N)=O)CCCC3)n1` here?
The Potency was inconclusive: 1.12 µM [activator, partial curve, poor fit].

With `COc1ccc(C(=O)NC(C)c2cnn(-c3ccccn3)c2C)o1` (stereo unspecified) as the molecule, how does the Potency read?
Its Potency is inconclusive: 3.98 µM [activator, partial curve, poor fit].

With `O=C(OCc1ccc(F)cc1)c1cc(S(=O)(=O)N2CCCCC2)ccc1N1CCOCC1` as the molecule, how does the Potency read?
Its Potency is “inactive”.

Which Potency does the source give for `Cc1sc2nc(CSc3cccc(C(F)(F)F)c3)[nH]c(=O)c2c1C` here?
Its Potency is “inactive”.

Which Potency does the source give for `N#CCSc1nc2ccccc2c2nc3ccccc3n12` here?
The Potency was inconclusive: 35.5 µM [activator, single point].

Which Potency does the source give for `CC(CS(=O)(=O)c1ccc2c(c1)NC(=O)CS2)C(=O)NCc1ccccc1Cl` (stereo unspecified) here?
The Potency was “inactive”.

With `c1csc(-c2csc3ncnc(NCCCN4CCOCC4)c23)c1` as the molecule, how does the Potency read?
Its Potency is inconclusive: 16.4 µM [inhibitor, single point].

For `O=C(Nc1ccncc1)c1cccc(S(=O)(=O)N2CCOCC2)c1`, which Potency is on record?
The Potency was “inactive”.

For `COc1ccc2c(c1OC)C(=O)OC2CC(=O)O` (stereo unspecified), which Potency is on record?
The Potency was “inactive”.

For `COc1ccc2oc(C(=O)N(C)Cc3ccc4c(c3)OCCO4)c(C)c2c1`, which Potency is on record?
Its Potency is “inactive”.

With `CC(=O)N1CCc2c(sc3c2c(=O)n(-c2ccc(C)cc2)c(=O)n3Cc2ccccc2C)C1` as the molecule, how does the Potency read?
The Potency was “inactive”.

With `NC(=O)CCn1c(=O)oc2ccccc21` as the molecule, how does the Potency read?
Its Potency is “inactive”.

With `CCN(CC)CCCNc1oc(-c2cccc(Cl)c2)nc1C#N` as the molecule, how does the Potency read?
Its Potency is active: 16.4 µM.

Which Potency does the source give for `Cc1ccccc1NC(=S)NCc1ccc2c(c1)OCO2` here?
Its Potency is inconclusive: 35.5 µM [activator, partial curve, poor fit].

With `O=C(CN1CCN(c2ccccc2F)CC1)N1N=CCC1c1ccccc1` (stereo unspecified) as the molecule, how does the Potency read?
The Potency was “inactive”.

With `Cc1ccc(C(=O)Nc2ccc3oc(-c4ccccc4C)nc3c2)cc1` as the molecule, how does the Potency read?
Its Potency is inconclusive: 6.31 µM [inhibitor, full curve, poor fit].

Which Potency does the source give for `CCCC(=O)c1ccc(N2CCN(C(=O)c3ccccc3)CC2)c(F)c1` here?
The Potency was inconclusive: 35.5 µM [inhibitor, single point].

For `NCCN1CCN(CCN)CC1`, which Potency is on record?
Its Potency is “inactive”.

Which Potency does the source give for `O=C(OCCN1C(=O)c2cccc3c(N4CCOCC4)ccc(c23)C1=O)c1cccc(Cl)c1` here?
Its Potency is inconclusive: 22.4 µM [inhibitor, partial curve, poor fit].

Which Potency does the source give for `COCCN(C(=O)c1csnn1)C(C(=O)NC1CCCC1)c1ccccc1F` (stereo unspecified) here?
The Potency was inconclusive: 8.91 µM [activator, partial curve].

With `CC(OC(=O)c1cc(Br)ccc1O)C(=O)Nc1ccc(S(=O)(=O)N2CCCC2)cc1` (stereo unspecified) as the molecule, how does the Potency read?
The Potency was inconclusive: 31.6 µM [inhibitor, single point].

For `O=[N+]([O-])c1cccc(-c2cc3cccc[n+]3cc2-c2cccc([N+](=O)[O-])c2)c1`, which Potency is on record?
Its Potency is “inactive”.

With `CCOC(=O)Cc1csc(NC(=O)NC2(C(F)(F)F)Oc3ccccc3O2)n1` as the molecule, how does the Potency read?
The Potency was “inactive”.

For `Cc1ccc2cc(/C=N/NC(=O)[C@H](C)NC(=O)OC(C)(C)C)c(Cl)nc2c1`, which Potency is on record?
Its Potency is inconclusive: 5.62 µM [inhibitor, single point].

Which Potency does the source give for `Cc1cc2occ(CC(=O)N(C)CC(=O)Nc3c(C)cccc3C)c2cc1C` here?
The Potency was inconclusive: 3.98 µM [inhibitor, partial curve, poor fit].

With `Cc1ccc2oc(=O)n(CCNC(=O)Nc3ccc(Cl)cc3)c2c1` as the molecule, how does the Potency read?
Its Potency is “inactive”.

Which Potency does the source give for `O=C(O)C1C2CCC(O2)C1C(=O)Nc1ccc(OC(F)F)cc1` (stereo unspecified) here?
The Potency was inconclusive: 12.6 µM [inhibitor, single point].

Which Potency does the source give for `O=C1N/C(=C\c2ccc(O)cc2)C(=O)c2ccccc21` here?
Its Potency is inconclusive: 29.1 µM [inhibitor, single point].

For `Cc1cc(C)n2nc(CNS(=O)(=O)c3ccccc3)nc2n1`, which Potency is on record?
The Potency was “inactive”.

For `CC(C)CC(=O)Nc1ccc(N2CCN(S(C)(=O)=O)CC2)cc1`, which Potency is on record?
The Potency was inconclusive: 15.8 µM [activator, partial curve, poor fit].

With `O=C(CSc1nnnn1-c1ccc2c(c1)OCCO2)Nc1nc2c(s1)CCCC2` as the molecule, how does the Potency read?
The Potency was “inactive”.

Which Potency does the source give for `O=C(O)c1c(Cl)c(Cl)c(Cl)c(Cl)c1-c1c2cc(I)c(=O)c(I)c-2oc2c(I)c(O)c(I)cc12` here?
The Potency was “inactive”.

With `COc1ccc(/C=C2\CCCC3C2=NC(=S)NC3c2ccc(OC)cc2)cc1` (stereo unspecified) as the molecule, how does the Potency read?
Its Potency is inconclusive: 0.517 µM [inhibitor, full curve, poor fit].

With `COc1ccccc1N1CCN(Cc2nc(N)nc(Nc3ccc(C)c(Cl)c3)n2)CC1` as the molecule, how does the Potency read?
Its Potency is “inactive”.

Which Potency does the source give for `O=C(Nc1ccc(N2CCCCC2)cc1)c1ccc(F)cc1` here?
The Potency was active: 11.2 µM.

For `O=C(CC1NCCc2ccccc21)Nc1ccc(Oc2ccccc2)cc1` (stereo unspecified), which Potency is on record?
The Potency was inconclusive: 5.01 µM [inhibitor, partial curve, poor fit].

For `COC(=O)c1cc(NC(=O)Cn2c(=O)oc3ccccc32)cc(C(=O)OC)c1`, which Potency is on record?
The Potency was “inactive”.

With `COCCNc1oc(-c2ccc(OC)cc2)nc1C#N` as the molecule, how does the Potency read?
Its Potency is “inactive”.

For `CCOC(=O)C1(CCOC)CCN(Cc2cnc(-c3cccc(C)c3)nc2)CC1`, which Potency is on record?
The Potency was inconclusive: 12.6 µM [inhibitor, single point].

Which Potency does the source give for `O=C(CN1CCN(C(c2ccccc2)c2ccccc2)CC1)NC(=O)NCc1ccco1` here?
Its Potency is inconclusive: 32.6 µM [inhibitor, single point].

For `Cc1ccnc(Nc2nc(-c3ccc(O)c(O)c3)cs2)c1`, which Potency is on record?
The Potency was inconclusive: 35.5 µM [inhibitor, single point].

With `CC1(C(=O)OCC(=O)NC(=O)NCc2ccccc2)CC1(Cl)Cl` (stereo unspecified) as the molecule, how does the Potency read?
The Potency was “inactive”.

With `Cc1cccc(NCc2nnc(-c3ccccc3)o2)c1C` as the molecule, how does the Potency read?
The Potency was inconclusive: 1.41 µM [inhibitor, full curve].

For `COCCNC(=O)c1ccc2c(Cl)c3c(nc2c1)CCC3`, which Potency is on record?
Its Potency is inconclusive: 0.708 µM [activator, single point].

Which Potency does the source give for `Cc1ccc(S(=O)(=O)NCc2cccnc2)cc1C` here?
The Potency was inconclusive: 1.12 µM [inhibitor, partial curve, poor fit].

Which Potency does the source give for `CCOc1ccc(OCCC(=O)NNC(=O)c2ccccc2Cl)cc1` here?
The Potency was inconclusive: 6.31 µM [activator, full curve, poor fit].

With `COc1ccc(OC(=O)CN2C(=O)C3C4CCC(C4)C3C2=O)cc1` (stereo unspecified) as the molecule, how does the Potency read?
The Potency was inconclusive: 0.631 µM [activator, partial curve, poor fit].

With `Cc1cc(C)n([C@@H]2CCCC[C@H]2OC(=O)c2ccccc2)n1` as the molecule, how does the Potency read?
The Potency was “inactive”.

With `O=C(Cc1ccc(NC(=O)C2CCCN(C(=O)CCc3ccccc3)C2)cc1)Nc1ccc(C(=O)N2CCOCC2)cc1` (stereo unspecified) as the molecule, how does the Potency read?
Its Potency is “inactive”.

With `CCCCCCCCCCCCCCCCCC(=O)OC(CC(=O)O)C[N+](C)(C)C` (stereo unspecified) as the molecule, how does the Potency read?
Its Potency is inconclusive: 25.1 µM [inhibitor, partial curve].

For `CC1(C)CC(=O)C2=C(C1)c1c(ccc3ncccc13)NC2c1cccs1` (stereo unspecified), which Potency is on record?
The Potency was inconclusive: 0.251 µM [inhibitor, full curve, poor fit].
